Test results: patent US20090239926A1, “METHODS FOR THE TREATMENT OF PSORIASIS OR PSORIATIC ARTHRITIS USING CYCLOPROPYL-N-CARBOXAMIDE” (priority 2008, published 2009)
Some of these results come from one statement about several compounds together.

System: normal human skin xenotransplanted onto beige-SCID mice injected with psoriatic patient NK cells
Assay: Human NK cell-driven psoriasis model: human skin xenotransplanted onto beige-SCID mice
Assay type: in vivo
Details: 5 mg/kg/day p.o., b.i.d., 14 days
Description: Healthy human skin pieces having a width of 0.4 mm and surface area of 3×3 cm were provided from residual skin of routine plastic surgery procedures from the Plastic Surgery Department of the Rambam Medical Center, Isreal. In addition, blood samples from psoriatic patients were taken at a volume of 25 mL.
Twenty-one (21) beige-severe combined immunodeficient mice (SCID) (weight about 20 g) were included in this study. Normal human skin was transplanted onto the beige-SCID mice as previously described by Nickoloff et al., 1995; Wrone-Smith, et al., 1996. A sample of each donor was transplanted onto […] so that the three treatment groups (n=7 mice/group) were homogenous.
PBMC from the psoriatic patient blood were isolated and cultured in the presence of IL-2 (100 U/mL of media) for 14 days to activate the NK cells, as previously described by Gilhar et al., J. Invest. […] Grafts were analyzed by histology and immunohistochemistry.
Determination of Epidermal Thickness: Skin graft histological assessment was performed by light microscopy both before and after transplantation and two blinded observers performed the evaluations. Epidermal thickness was determined with an ocular micrometer, at a minimum of 50 points along the epidermis selected to represent points of maximal and minimal thickness. Thickness of the suprapapillary plate was similarly measured at 50 points for each sample. […]

CCOc1cc([C@@H](CS(C)(=O)=O)N2Cc3cccc(NC(=O)C4CC4)c3C2=O)ccc1OC [Compound A, cyclopropyl-N-{2-[(1S)-1-(3-ethoxy-4-methoxyphenyl)-2-(methylsulfonyl)ethyl]-3-oxoisoindoline-4-yl}carboxamide]
decrease in the keratinocyte proliferation index vs vehicle: > 50%
